{"source": "paper PMC3128581", "target": "T1, Fc-NRP2 (UniProt O60462)", "T1 sequence": "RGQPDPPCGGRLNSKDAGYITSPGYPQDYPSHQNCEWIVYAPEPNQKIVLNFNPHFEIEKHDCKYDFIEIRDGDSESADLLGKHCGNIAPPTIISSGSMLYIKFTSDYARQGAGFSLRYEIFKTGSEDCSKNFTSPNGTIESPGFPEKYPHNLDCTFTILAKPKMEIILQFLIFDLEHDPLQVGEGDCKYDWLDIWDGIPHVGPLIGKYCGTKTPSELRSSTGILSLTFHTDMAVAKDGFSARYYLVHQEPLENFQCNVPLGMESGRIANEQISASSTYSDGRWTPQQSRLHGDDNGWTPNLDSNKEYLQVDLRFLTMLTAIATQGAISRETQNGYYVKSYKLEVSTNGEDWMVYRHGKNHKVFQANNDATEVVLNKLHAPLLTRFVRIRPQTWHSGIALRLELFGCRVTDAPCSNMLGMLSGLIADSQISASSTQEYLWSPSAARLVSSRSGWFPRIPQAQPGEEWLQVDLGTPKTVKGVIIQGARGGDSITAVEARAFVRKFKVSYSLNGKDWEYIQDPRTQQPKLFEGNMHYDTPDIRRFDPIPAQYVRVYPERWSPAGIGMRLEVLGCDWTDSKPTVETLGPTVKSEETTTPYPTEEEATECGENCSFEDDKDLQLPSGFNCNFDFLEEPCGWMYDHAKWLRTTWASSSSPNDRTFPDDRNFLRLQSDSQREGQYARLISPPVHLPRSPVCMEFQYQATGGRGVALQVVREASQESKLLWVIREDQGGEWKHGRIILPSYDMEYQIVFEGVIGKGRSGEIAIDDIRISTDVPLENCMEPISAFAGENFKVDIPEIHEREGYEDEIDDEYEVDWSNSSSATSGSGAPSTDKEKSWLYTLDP", "assay": "SPR; Fc-NRP2 covalently grafted on a chemically activated self assembled monolayer of a homemade chip (7.4 +/- 0.1 femtomole/mm^2 of NRP2); analytes injected at 250 nM in PBS-Tween 0.05%, pH 7.4; Biacore 2000, 25°C, flow rate between 2 and 30 µl/min; both purified", "note": "Results are given in words; binding and its absence hold for the method and conditions named. Binding calls can cover weak binding; strength is not graded here. Where a sequence is shown, tags or fusion partners need not be part of it.", "data": [{"substance": "VEGF165 (ligand)", "values": [{"measurement": "binding", "result": "binds"}]}]}
